Laboratory results from patent US6194399A, “Aryldiamine derivatives useful as antibacterial agents” (Scriptgen Pharmaceuticals, Inc., priority 1999, dated 2001).
At least one compound was matched to its structure with a doubt left.

Test system: wild-type E. coli
Assay: MIC, broth microdilution assay
Type: cell-based
Settings: MIC and MBC, compared with S. aureus
Method: The antimicrobial activity of a compound or formulation according to the invention is determined by exposing a culture comprising a bacterial species to different concentrations of the compound or formulation and monitoring the effects on growth relative to a control culture not exposed to the compound. Any method known in the art may be used to assess bacterial growth. Antimicrobial effects are expressed as Minimal Inhibitory Concentration (MIC) and Minimum Bactericidal Concentration (MBC).
The MIC may be expressed as a range between the concentration at which no growth is observed and the concentration of the dilution which immediately follows.
Typically, MIC is measured using a broth microdilution assay as follows. […]
The overnight culture of a single colony is diluted in sterile medium so that, after inoculation, each well contains approximately 5×10^5CFU/mL. […] The turbidity of each well is determined by measuring the absorbance at 595 nm using a BioRad Model 3550-UV microplate reader.
The antimicrobial activities of the compounds of the invention, expressed as MIC and MBC, were determined as described above, using as tester strains wild-type S. aureus, rifampicin-resistant S. aureus, wild-type E. coli, and E. coli cells that had been permeabilized.

In the case of `NCCNc1ccc([N+](=O)[O-])c(N2CCN(c3ccc([N+](=O)[O-])cc3)CC2)c1` [Compound (B)], the “antimicrobial activity against E. coli, in words” value is reported as “less effective”.
